The assay concerns 7,12-dimethylbenz(a)anthraceneinduced mammary tumor. Briefly: Inhibitory effect on the mammary tumor (DMBA-induced tumor model). The format is in vivo, female Sprague-Dawley rat (Hanover breed). Conditions: 3 mg./kg./day by stomach tube, six times weekly over 28 days; control animals taken as 100%.

The structures appear in SMILES notation.

For `CC/C(=C(\c1ccccc1)c1ccc(OCCN(C)C)cc1)c1ccccc1` [Tamoxifen, reference compound], the “Relative Increase of the Average Tumor Surface” value worked out at 35%.

The record behind these values is patent EP0897720A1, “Droloxifene for prevention of breast cancer” (Pfizer Products Inc., priority 1997, dated 1999).
